Taken from: PubChem BioAssay AID1259405 (NCATS, 2018)

- Purpose: 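Knock-downs that lift recombinant protein yield in hamster ovary cells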 (primary screen)
- System: Chinese hamster CHO-K1 ovary cells with stable secreted eGFP expression
- Knock-down reagent: single siRNA against mouse genes, 0.8 pmol siRNA per well (2 µl of 400 nM stock)
- Duration: 3 days
- Measured: 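Per-well intracellular GFP measured by laser scanning cytometry, plus viability from ATP luminescence, each relative to plate median of non-targeting control wells, in %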
- Direction: GFP, % of control: higher = more GFP per well, higher productivity
- Active means: 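a knock-down is called active if GFP reaches 120% or more of non-targeting control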
In all, the deposit lists about 50,000 reagents; below is a part drawn at random. About 4,000 of all reagents (8%) count as active. 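Mouse siRNA library applied to hamster cells; one well for each siRNA.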 Reagents against one gene are numbered here. Further read-outs or replicates are left out here. No sequences are given here.

GFP, % of control, by target and reagent
Poglut1 (protein O-glucosyltransferase 1): #1 61.4 inactive; #2 39 inactive; #3 76.5 inactive
Capstert (catsper channel auxiliary subunit tau): #1 72.3 inactive; #2 59.5 inactive; #3 70.4 inactive
Smc3 (structural maintenance of chromosomes 3): #1 84.8 inactive; #2 130 active; #3 108 inactive
Naip3 (NLR family, apoptosis inhibitory protein 3): #1 117 inactive; #2 75 inactive; #3 52.9 inactive
Tff3 (trefoil factor 3, intestinal): #1 73.3 inactive; #2 23.7 inactive; #3 49.9 inactive
Nod2 (nucleotide-binding oligomerization domain containing 2): #1 139 active; #2 141 active
Nsd1 (nuclear receptor-binding SET-domain protein 1): #1 58.3 inactive; #2 83.4 inactive; #3 68.1 inactive
D630039A03Rik (RIKEN cDNA D630039A03 gene): #1 80 inactive; #2 99.8 inactive; #3 114 inactive
Mrgprb2 (MAS-related GPR, member B2): #1 77.3 inactive; #2 71.2 inactive; #3 84.7 inactive
Ddost (dolichyl-di-phosphooligosaccharide-protein glycotransferase): #1 97.8 inactive; #2 82.4 inactive; #3 110 inactive
Taco1: #1 94.1 inactive; #2 52 inactive; #3 104 inactive
Grb14 (growth factor receptor bound protein 14): #1 97.9 inactive; #2 84.2 inactive; #3 81.5 inactive
Ncoa6 (nuclear receptor coactivator 6): #1 101 inactive; #2 82.4 inactive
Fgfbp1 (fibroblast growth factor binding protein 1): #1 53.7 inactive; #2 82.4 inactive; #3 116 inactive
Aoc1l1 (amine oxidase copper containing 1-like 1): #1 118 inactive; #2 84.6 inactive; #3 65.1 inactive
Ca6 (carbonic anhydrase 6): #1 96.5 inactive; #2 70.5 inactive
Muc6 (mucin 6, gastric): #1 50.1 inactive; #2 57.8 inactive; #3 85.3 inactive
Aadat (aminoadipate aminotransferase): #1 114 inactive; #2 105 inactive; #3 46.4 inactive
Coq10b (coenzyme Q10B): #1 41.8 inactive; #2 91.5 inactive; #3 85.9 inactive
Atoh7 (atonal bHLH transcription factor 7): #1 78.6 inactive; #2 36.6 inactive; #3 59.2 inactive

Records listed above called active:
GFP, % of control, by target and reagent
Smc3 (structural maintenance of chromosomes 3): #2 130 active
Nod2 (nucleotide-binding oligomerization domain containing 2): #1 139 active; #2 141 active
